Assay results: US6642031B2, “Microorganisms with ability to degrade indole and enzymes therefrom” (Genencor International, Inc., priority 1995, dated 2003)

Test system: indole oxidase
Assay: Cell-free oxygen uptake in WW2 indole-induced cell extract
Assay type: biochemical, Pseudomonas putida
Details: colour of the reaction, substrate 0.3 mM, 1 mM NADH

## Oc1cccc2[nH]ccc12 [4-OH-Indole]
  Color: brown
